Experimental data reported in US20160264636A1, “PEPTIDE INHIBITORS OF TEAD/YAP-TAZ INTERACTION” (UNIVERSITE PIERRE ET MARIE CURIE (PARIS 6), priority 2013, published 2016).
At least one peptide structure holds a part that was inferred or is arguable (an end, a ring closure or a residue). Peptide text beside a SMILES is read from it.

Key:
Format in all cases: cell-based
Conditions in all cases: Table IV, drug alone vs its vehicle (Glucose 5% or NaCl)
HBEC RasV12 cells = test system: HBEC RasV12 cells
Experimental: (§1) H1650, H1975, H1299, A549 cell lines were cultured in DMEM medium supplemented with 10% of FCS. HBEC cell lines (wt and Ras V12) were cultured in KSFM supplemented with growth factors. All the cell lines come from human non small cell lung cancer (NSCLC).
(§2) The cytotoxicity of penetrating peptides or chemotherapeutic agents, alone or in combination, was evaluated by the (3-(4,5-dimethylthiazol-2-yl)-2,5-diphenyltetrazolium bromide) tetrazolium (MTT) reduction assay. The cells were seeded in 96-well plates (100 μL/well) at a cell density defined from growth curves. After 24 hours of incubation, cells were treated with the peptides for 72 hours. The wells were rinsed two times with RPMI. After washing, 10 μl of stock MTT solution (5 mg/ml; MTT (SIGMA #M-2128) in PBS Dubecco's 1× without Ca^2+ and Mg^2+) was added to a final volume of 100 μl of culture medium. Cell lines were incubated for additional 4 hours at 37° C. under humid atmosphere with 5% (v/v) CO2. The formation of blue formazan crystals was detected under a microscope. An equal volume of 10% SDS (MERCK, #926.238) in 10 mM HCl was added to each well and the plate was placed in the incubator overnight to dissolve formazan crystals. The plates were mixed to ensure complete solubilisation of formazan crystals and absorbance was measured at 570 nm and 620 nm. The percentage of viable cells was estimated using the formula: % cell viability=ΔOD(570-620) treated/ΔOD(570-620)control×100.
(§3) Cell-penetrating peptides (CPPs) comprising the binding site of TEAD to TAZ or YAP or of YAP to TEAD (TAZ, TEAD and YAP peptides, respectively) were chemically synthesized. The effect of the peptides on cell viability was assayed on several human non small cell lung cancer (NSCLC) cell lines. All the lung cancer cell lines were treated for 72 h with different peptide concentrations. Cytotoxicity was analysed as described in Materials and Methods.

A549 cells = test system: A549 cells
Experimental: as §1, §2, §3

HBEC wt cells = test system: HBEC wt cells
Experimental: as §1, §2, §3

H1299 cells = test system: H1299 cells
Experimental: as §1, §2, §3

H1650 cells = test system: H1650 cells
Experimental: as §1, §2, §3

H1975 cells = test system: H1975 cells
Experimental: as §1, §2, §3

CC[C@H](C)[C@H](NC(=O)[C@H](CCCCN)NC(=O)[C@H](CCCCN)NC(=O)[C@H](CCCCN)NC(=O)[C@H](CCCCN)NC(=O)[C@@H](N)C(C)C)C(=O)N[C@@H](CCCCN)C(=O)N[C@@H](C)C(=O)N[C@@H](CCC(=O)O)C(=O)N[C@H](C(=O)N[C@@H](CCCCN)C(=O)N[C@H](C(=O)N[C@@H](CCCNC(=N)N)C(=O)N[C@@H](CC(C)C)C(=O)N[C@@H](CCC(N)=O)C(=O)N[C@@H](CC(C)C)C(=O)N[C@H](C(=O)N[C@@H](CCC(=O)O)C(=O)N[C@@H](Cc1ccccc1)C(=O)N[C@@H](CO)C(=O)N[C@@H](C)C(=O)N[C@@H](Cc1ccccc1)C(=O)N[C@H](C(=O)N[C@@H](CCC(=O)O)C(=O)N1CCC[C@H]1C(=O)N1CCC[C@H]1C(=O)N[C@@H](CC(=O)O)C(=O)N[C@@H](C)C(=O)N[C@H](C(=O)N[C@@H](CC(=O)O)C(=O)O)C(C)C)C(C)C)C(C)C)[C@@H](C)CC)[C@@H](C)CC [TEAD] (H-VKKKKIKAEIKIRLQLVEFSAFVEPPDAVD-OH; N-terminus and C-terminus assumed)
Cell viability (%) (HBEC RasV12 cells): −36.65% | Cell viability (%) (A549 cells): 3.124% | Cell viability (%) (HBEC wt cells): −15.41% | Cell viability (%) (H1299 cells): −12.44% | Cell viability (%) (H1650 cells): −25.3% | Cell viability (%) (H1975 cells): −20.23%
